Measurements as given in patent publication US20130031647A1 (PIERRE FABRE MEDICAMENT, published 2013).
No constants are given. Whether binding was seen depends on the method and setting. Some results given as binding are weak or reduced against the parent protein; the word gives no strength.

Sequences of proteins named here, by UniProt entry; tags and fusion partners are left off.
UniProt P61073: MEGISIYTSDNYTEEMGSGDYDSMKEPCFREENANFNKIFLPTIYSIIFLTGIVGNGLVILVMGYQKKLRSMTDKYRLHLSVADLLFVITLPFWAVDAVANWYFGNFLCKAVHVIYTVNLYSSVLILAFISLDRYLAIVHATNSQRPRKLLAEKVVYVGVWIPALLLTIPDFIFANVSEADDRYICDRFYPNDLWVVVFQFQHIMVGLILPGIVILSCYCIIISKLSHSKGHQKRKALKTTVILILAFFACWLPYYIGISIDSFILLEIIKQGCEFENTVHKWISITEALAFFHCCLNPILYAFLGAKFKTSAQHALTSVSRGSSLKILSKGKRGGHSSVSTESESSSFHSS

Target: human CXCR4 receptor (human, UniProt P61073 1-352)
Assay: flow cytometry competition on CXCR4 transfected NIH3T3 cells; competitor: biotinylated murine 515H7
Source text: In a first series of experiments, we constructed and analysed the anti-CXCR4 binding activities of the three first humanized variants. […] Therefore, VH1 was combined with the three different variants of VL (FIG. 23D-F).

B1: humanized antibody Hz515H7 VH2/c515H7 VL (antibody, human IgG1, V domains shown)
VH: EVNLVESGGGLVQPGRSLRLSCTASGFTFTDNYMSWVRQAPGKGLEWLGFIRNKANGYTTDYAASVRGRFTISRDNSKSILYLQMNALRTEDTAVYYCARDVGSNYFDYWGQGTLVTVSS
VL: DIVMSQSPSSLAVSAGEKVTMSCKSSQSLFNSRTRKNYLAWYQQKPGQSPKLLIYWASARDSGVPARFTGSGSETYFTLTISRVQAEDLAVYYCMQSFNLRTFGQGTKVEIKR
With B1 the binding was “binds”.
